Measurements published in the supplement of paper PMC10849652.
The list shows a part of the results.

Chains of the proteins cited; added tags and fusions are not shown. Lines headed by an entry give the natural chain unless they say otherwise; changes in a name come on top.
UniProt Q9Y696: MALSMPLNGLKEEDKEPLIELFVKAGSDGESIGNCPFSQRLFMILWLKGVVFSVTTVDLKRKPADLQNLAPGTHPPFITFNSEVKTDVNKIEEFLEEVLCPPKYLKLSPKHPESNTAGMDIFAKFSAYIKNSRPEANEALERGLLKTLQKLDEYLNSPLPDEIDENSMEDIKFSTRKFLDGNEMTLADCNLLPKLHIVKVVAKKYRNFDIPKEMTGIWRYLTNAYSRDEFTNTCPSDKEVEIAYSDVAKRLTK
UniProt P09497: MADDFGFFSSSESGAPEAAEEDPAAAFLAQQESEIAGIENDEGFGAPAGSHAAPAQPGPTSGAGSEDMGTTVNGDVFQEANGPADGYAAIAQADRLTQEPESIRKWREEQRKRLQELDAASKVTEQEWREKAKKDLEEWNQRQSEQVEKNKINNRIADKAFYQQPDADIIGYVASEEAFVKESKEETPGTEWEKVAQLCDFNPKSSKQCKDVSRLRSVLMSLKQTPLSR
UniProt Q96KA5: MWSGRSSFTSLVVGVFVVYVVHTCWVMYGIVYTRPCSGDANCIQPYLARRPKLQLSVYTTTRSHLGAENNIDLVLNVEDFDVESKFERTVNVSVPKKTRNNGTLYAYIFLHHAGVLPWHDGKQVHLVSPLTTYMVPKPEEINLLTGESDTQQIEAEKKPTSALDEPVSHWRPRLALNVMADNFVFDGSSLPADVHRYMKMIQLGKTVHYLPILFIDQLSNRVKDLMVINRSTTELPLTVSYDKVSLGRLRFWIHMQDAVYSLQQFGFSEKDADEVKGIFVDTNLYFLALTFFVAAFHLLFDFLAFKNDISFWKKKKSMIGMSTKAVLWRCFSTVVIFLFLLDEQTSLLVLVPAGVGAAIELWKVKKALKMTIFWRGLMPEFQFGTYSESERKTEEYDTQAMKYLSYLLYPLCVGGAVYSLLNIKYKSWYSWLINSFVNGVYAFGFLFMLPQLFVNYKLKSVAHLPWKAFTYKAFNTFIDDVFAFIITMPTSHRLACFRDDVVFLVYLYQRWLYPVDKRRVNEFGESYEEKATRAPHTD
UniProt Q9UKJ5: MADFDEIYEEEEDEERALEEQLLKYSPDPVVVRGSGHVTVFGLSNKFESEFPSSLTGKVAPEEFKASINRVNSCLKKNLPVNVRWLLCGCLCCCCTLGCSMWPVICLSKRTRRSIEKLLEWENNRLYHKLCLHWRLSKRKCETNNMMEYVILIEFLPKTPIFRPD
UniProt O75153: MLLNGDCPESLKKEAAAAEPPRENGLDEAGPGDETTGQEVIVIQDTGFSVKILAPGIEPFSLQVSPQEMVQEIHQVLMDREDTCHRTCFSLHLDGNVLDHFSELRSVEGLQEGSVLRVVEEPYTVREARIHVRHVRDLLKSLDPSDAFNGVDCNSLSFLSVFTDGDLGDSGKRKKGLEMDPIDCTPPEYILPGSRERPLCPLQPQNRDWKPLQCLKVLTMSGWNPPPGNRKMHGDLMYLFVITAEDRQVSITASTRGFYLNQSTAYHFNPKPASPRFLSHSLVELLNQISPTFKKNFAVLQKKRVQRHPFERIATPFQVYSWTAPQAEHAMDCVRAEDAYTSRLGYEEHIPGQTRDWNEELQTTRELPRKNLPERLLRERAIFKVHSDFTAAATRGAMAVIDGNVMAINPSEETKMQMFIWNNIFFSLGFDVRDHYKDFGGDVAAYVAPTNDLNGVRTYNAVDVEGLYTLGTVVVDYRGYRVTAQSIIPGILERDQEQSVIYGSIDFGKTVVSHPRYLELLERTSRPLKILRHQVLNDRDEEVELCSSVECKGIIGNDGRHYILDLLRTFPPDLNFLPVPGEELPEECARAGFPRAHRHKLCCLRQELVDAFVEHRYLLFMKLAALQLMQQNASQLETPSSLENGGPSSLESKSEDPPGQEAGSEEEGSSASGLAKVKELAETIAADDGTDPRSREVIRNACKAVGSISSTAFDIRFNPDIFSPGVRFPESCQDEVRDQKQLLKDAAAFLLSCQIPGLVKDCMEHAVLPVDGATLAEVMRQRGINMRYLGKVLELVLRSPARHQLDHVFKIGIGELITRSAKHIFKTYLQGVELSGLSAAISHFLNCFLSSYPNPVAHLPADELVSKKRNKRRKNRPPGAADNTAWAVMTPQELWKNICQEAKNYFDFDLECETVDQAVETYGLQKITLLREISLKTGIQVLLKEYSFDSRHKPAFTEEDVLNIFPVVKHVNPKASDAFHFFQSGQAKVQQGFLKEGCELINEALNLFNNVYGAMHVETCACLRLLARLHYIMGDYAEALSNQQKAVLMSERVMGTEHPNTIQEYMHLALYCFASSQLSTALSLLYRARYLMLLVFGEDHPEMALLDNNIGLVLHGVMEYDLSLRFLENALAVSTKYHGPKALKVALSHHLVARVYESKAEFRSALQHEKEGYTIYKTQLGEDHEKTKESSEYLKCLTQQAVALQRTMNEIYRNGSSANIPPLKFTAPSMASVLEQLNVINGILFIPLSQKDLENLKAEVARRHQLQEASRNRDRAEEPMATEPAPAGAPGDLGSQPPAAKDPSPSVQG
UniProt Q14008: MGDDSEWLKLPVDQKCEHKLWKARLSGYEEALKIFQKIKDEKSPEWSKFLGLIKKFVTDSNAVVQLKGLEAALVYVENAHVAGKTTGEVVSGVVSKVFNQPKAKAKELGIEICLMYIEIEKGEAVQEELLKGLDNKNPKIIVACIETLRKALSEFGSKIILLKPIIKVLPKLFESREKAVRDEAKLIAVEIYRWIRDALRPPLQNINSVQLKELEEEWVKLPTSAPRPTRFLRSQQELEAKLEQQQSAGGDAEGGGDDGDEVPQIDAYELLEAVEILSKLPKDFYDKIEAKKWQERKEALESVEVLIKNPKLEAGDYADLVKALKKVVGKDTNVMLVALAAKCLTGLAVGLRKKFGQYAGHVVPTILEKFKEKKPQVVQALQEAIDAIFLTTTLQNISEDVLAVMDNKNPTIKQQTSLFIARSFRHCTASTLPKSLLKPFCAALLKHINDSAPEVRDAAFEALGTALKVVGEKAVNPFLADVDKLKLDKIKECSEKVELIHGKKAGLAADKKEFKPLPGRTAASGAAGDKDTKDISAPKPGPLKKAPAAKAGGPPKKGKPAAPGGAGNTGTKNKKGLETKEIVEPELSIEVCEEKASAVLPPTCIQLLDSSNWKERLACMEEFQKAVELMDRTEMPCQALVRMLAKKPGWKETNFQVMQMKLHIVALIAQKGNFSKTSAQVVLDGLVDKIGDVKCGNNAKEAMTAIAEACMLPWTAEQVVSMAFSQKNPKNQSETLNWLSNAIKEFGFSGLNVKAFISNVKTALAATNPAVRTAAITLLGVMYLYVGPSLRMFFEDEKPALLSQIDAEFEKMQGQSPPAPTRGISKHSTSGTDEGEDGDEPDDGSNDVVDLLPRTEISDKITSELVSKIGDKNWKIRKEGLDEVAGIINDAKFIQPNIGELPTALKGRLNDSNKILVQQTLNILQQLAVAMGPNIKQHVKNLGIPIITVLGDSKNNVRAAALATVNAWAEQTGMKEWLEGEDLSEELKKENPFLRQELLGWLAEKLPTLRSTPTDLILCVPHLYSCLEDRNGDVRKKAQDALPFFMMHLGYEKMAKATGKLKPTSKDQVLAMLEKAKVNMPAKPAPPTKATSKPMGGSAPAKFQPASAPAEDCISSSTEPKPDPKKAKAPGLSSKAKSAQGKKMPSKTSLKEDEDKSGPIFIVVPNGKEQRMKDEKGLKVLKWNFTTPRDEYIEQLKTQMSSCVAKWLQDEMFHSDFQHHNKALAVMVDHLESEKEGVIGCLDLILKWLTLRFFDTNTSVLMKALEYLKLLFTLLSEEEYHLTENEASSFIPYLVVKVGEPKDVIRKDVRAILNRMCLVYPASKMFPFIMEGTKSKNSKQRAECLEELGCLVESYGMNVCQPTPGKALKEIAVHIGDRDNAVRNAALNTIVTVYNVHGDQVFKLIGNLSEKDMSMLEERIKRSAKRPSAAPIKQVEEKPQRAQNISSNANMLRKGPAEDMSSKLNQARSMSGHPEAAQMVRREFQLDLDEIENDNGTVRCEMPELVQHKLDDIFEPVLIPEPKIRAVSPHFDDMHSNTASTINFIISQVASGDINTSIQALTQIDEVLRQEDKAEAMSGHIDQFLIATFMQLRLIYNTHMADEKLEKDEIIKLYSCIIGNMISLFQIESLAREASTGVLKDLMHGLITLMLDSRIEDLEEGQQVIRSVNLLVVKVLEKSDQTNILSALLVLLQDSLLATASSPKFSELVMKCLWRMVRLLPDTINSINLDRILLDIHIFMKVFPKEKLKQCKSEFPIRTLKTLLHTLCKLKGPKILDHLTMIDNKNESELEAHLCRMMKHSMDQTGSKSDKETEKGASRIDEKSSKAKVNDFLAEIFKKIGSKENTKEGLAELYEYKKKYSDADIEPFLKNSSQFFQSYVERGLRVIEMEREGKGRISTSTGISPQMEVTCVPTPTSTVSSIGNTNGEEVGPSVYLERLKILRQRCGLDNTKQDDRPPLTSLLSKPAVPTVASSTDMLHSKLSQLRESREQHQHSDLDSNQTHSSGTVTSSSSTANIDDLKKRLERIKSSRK
UniProt P54105: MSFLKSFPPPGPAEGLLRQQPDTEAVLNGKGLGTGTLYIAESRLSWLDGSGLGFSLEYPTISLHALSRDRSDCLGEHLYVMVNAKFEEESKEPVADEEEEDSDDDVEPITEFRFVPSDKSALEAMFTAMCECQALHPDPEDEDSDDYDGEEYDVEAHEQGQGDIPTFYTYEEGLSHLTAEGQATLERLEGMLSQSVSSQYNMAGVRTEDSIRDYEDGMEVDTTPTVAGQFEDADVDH
UniProt Q9Y3Y2: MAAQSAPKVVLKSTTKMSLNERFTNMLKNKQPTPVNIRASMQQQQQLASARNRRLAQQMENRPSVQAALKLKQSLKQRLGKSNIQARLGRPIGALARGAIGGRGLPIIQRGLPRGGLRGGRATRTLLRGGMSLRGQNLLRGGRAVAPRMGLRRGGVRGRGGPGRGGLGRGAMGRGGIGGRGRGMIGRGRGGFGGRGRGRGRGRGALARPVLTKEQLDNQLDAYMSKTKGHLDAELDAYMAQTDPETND
UniProt Q16740, whole entry, looked up: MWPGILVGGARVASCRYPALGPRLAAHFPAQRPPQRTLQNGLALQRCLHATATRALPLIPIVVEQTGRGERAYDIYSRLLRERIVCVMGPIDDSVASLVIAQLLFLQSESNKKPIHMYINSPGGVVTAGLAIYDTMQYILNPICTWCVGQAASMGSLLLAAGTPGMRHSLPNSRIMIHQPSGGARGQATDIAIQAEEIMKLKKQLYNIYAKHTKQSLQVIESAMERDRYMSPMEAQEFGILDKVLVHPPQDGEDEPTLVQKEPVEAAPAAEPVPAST
UniProt O75122: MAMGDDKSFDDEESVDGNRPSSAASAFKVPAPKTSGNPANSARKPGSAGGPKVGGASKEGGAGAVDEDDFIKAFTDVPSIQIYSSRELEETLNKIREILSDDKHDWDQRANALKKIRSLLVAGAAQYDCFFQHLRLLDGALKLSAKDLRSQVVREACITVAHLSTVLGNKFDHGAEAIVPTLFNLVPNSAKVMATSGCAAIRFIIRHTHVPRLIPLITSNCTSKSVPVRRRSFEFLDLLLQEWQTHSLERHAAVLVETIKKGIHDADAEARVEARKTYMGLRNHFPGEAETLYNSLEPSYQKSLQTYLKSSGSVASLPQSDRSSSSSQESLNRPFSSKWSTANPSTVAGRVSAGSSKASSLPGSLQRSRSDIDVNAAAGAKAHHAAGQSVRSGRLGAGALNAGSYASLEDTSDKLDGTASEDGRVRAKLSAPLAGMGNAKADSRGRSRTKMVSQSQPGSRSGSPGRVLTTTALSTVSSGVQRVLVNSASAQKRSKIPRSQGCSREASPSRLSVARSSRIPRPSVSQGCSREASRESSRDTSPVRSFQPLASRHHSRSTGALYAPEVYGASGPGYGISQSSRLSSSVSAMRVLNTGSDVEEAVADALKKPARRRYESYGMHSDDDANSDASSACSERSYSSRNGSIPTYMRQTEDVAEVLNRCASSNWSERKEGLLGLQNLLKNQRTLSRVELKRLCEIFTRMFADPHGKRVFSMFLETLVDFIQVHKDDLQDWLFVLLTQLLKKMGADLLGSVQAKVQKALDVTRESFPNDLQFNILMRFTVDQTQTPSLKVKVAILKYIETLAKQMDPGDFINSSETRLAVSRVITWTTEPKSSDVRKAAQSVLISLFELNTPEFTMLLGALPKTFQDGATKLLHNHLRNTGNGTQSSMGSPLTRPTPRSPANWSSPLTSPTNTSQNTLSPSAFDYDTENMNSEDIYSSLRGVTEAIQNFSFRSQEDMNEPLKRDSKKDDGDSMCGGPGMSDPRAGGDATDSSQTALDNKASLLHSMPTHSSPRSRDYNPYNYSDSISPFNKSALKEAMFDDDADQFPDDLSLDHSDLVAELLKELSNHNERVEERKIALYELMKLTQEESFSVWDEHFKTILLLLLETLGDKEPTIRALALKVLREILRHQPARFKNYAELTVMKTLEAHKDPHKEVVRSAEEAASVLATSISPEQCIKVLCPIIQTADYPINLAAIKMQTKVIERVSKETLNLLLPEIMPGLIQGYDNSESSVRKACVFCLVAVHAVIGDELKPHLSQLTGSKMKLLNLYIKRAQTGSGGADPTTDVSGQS

How the values were obtained:
Test in all cases: log2 fold change, soluble protein after heating vs DMSO (PISA); higher = thermal stabilisation; K562 lysate, 10 uM; active = over 0.2 and 3.5 SD of the protein, either way, in both replicates (recomputed)
[1] = compound: C#Cc1cccc(Nc2ncnc3cc(OCCOC)c(OCCOC)cc23)c1 [erlotinib]
Outline: (§1)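 The values are log-two fold changes in thermal stability compared with solvent controls and come from duplicates. They were obtained by TMTpro 16plex LC-MS/MS, with channel sums equalised, on the supernatant after 21,000xg for 90 min. That supernatant came from crude K562 extract at 1 mg/mL protein treated with 10 μM compound for 30 min, heated for 3 min across 48°C-58°C, pooled and brought to 0.5% NP-40 at 4°C.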

[2] = compound: C/C(=N\NC(=O)C1=CC(=CC=C1)S(=O)(=O)N2CCOCC2)/C3=C(C=CC(=C3)Cl)O
Outline: as §1

[3] = compound: C1=CC(=CC=C1C2=NC3=C(N2)C=C(C=C3)C(=O)N)OC4=CC=C(C=C4)Cl
Outline: as §1

[4] = compound: C1=CC2=C(C=CC(=C2)/C=C\3/C(=O)NC(=NCC4=CC=CS4)S3)N=C1
Outline: as §1

[5] = compound: C1=CC2=NC=CN=C2C=C1/C=C/3\C(=O)NC(=O)S3
Outline: as §1

[6] = compound: C1=CC=C(C=C1)C2=NC(=C(N2)C3=CC=NC=C3)C4=CC(=C(C=C4)Cl)O
Outline: as §1

[7] = compound: C1=CC=C2C(=C1)C3=NNC4=CC=CC(=C43)C2=O
Outline: as §1

[8] = compound: C1CCN(C1)C(=O)NC2=CC=CC(=C2)NC3=NC=C(C(=N3)NCCC4=CN=CN4)Br
Outline: as §1

[9] = compound: C1CN(CCC1(CC2=CC=C(C=C2)Cl)N)C3=NC=NC4=C3C=CN4
Outline: as §1

[10] = compound: C1COCCN1CCN2C3=CC=CC=C3N=C2NC(=O)C4=CC(=CC=C4)[N+](=O)[O-] [IRAK-1-4 Inhibitor I]
Outline: as §1

[11] = compound: CC(=O)c1cnc2ccc(-c3cc(Cl)c(O)c(Cl)c3)nc2c1N[C@H]1CC[C@H](CN(C)C)CC1
Outline: as §1

[12] = compound: CC(C)(C)Cn1c(N)nc2ccc(-c3[nH]c(C(C)(C)C)nc3-c3ccc(F)cc3)nc21 [ralimetinib]
Outline: as §1

[13] = compound: CC(C)(O)CC(=O)NCCn1ccc2ncnc(Nc3ccc(Oc4cccc(C(F)(F)F)c4)c(Cl)c3)c21
Outline: as §1

[14] = compound: CC(C)C1=C2N=C(C=C(N2N=C1)NCC3=CC=CC=C3)NCCCCCCN
Outline: as §1

[15] = compound: CC1=C(C(CC(=O)N1)C2=CC=C(C=C2)C(F)(F)F)C(=O)NC3=C(C=C4C(=C3)C=NN4)F
Outline: as §1

[16] = compound: CC1=C(C2=C(C=C1)C(=O)C3=CC=CC=C3N2CCCN)C
Outline: as §1

[17] = compound: CC1=C(C=C(C=C1)NC(=O)C2=CC(=CC=C2)C(C)(C)C#N)NC3=CC4=C(C=C3)N=CN(C4=O)C
Outline: as §1

[18] = compound: CC1=C(C=C(C=C1)NC(=O)C2=CC(=CC=C2)N(C)C)NC(=O)C3=CC=C(C=C3)O
Outline: as §1

[19] = compound: CC1=CC=C(C=C1)SC2=C3C=C(SC3=CN=C2)C(=O)N
Outline: as §1

[20] = compound: C=CC(=O)N1CCC[C@@H](n2nc(-c3ccc(Oc4ccccc4)cc3)c3c(N)ncnc32)C1 [ibrutinib]
Outline: as §1

Measured: log2 fold change

CLIC1 (UniProt O00299)
inactive: [1] 0.009 | [2] 0.011 | [3] 0.038 | [4] -0.008 | [5] -0.001 | [6] -0.026 | [7] 0.009 | [8] -0.001 | [9] 0 | [10] 0.005 | [11] -0.004 | [12] 0.006 | [13] -0.007 | [14] 0.008 | [15] -0.016 | [16] -0.006 | [17] 0.002 | [18] -0.025 | [19] 0.004

CLCN3 isoform 2 (UniProt P51790)
inactive: [1] 0.003 | [2] 0.083 | [3] -0.061 | [4] -0.005 | [5] -0.004 | [6] -0.042 | [7] 0.013 | [8] -0.032 | [9] 0.029 | [10] 0.068 | [11] 0.029 | [12] 0.02 | [13] -0.032 | [14] -0.035 | [15] -0.017 | [16] -0.066 | [17] 0.029 | [18] 0.048 | [19] -0.013

CMBL (UniProt Q96DG6)
active: [11] 0.22
inactive: [1] 0.026 | [2] 0.047 | [3] -0.03 | [4] -0.031 | [5] 0.01 | [6] -0.002 | [7] 0.045 | [8] 0.006 | [9] -0.002 | [10] 0.025 | [20] -0.059 | [12] 0.018 | [13] -0.009 | [14] -0.056 | [15] -0.082 | [16] 0 | [17] 0.014 | [18] -0.04 | [19] -0.011

CLIC4 (UniProt Q9Y696)
inactive: [1] -0.001 | [2] -0.04 | [3] 0.005 | [4] -0.011 | [5] -0.014 | [6] -0.014 | [7] 0.022 | [8] 0.008 | [9] -0.005 | [10] 0.015 | [11] -0.005 | [12] 0.012 | [13] -0.006 | [14] 0.011 | [15] -0.007 | [16] 0.011 | [17] 0.036 | [18] -0.037 | [19] 0.001

CLTB isoform 2 (UniProt P09497)
inactive: [1] 0.001 | [2] -0.005 | [3] 0.038 | [4] -0.016 | [5] 0.007 | [6] -0.006 | [7] 0.017 | [8] 0.017 | [9] -0.018 | [10] 0.004 | [11] -0.016 | [12] 0.011 | [13] -0.009 | [14] 0.01 | [15] -0.029 | [16] -0.013 | [17] 0.02 | [18] -0.023 | [19] -0.029

CLPTM1L (UniProt Q96KA5)
inactive: [1] -0.019 | [2] 0.014 | [3] -0.143 | [4] -0.01 | [5] 0.009 | [6] -0.052 | [7] -0.197 | [8] -0.059 | [9] 0.091 | [10] -0.01 | [11] -0.011 | [12] 0.041 | [13] -0.041 | [14] 0.048 | [15] 0.058 | [16] 0.081 | [17] -0.024 | [18] 0.039 | [19] -0.005

CHIC2 (UniProt Q9UKJ5)
inactive: [1] -0.098 | [2] 0.097 | [3] 0.065 | [4] -0.039 | [5] 0.039 | [6] 0.021 | [7] -0.009 | [8] 0.056 | [9] -0.035 | [10] 0.067 | [20] 0.001 | [11] -0.114 | [12] -0.154 | [13] 0.183 | [14] -0.064 | [15] 0.157 | [16] 0.026 | [18] -0.066 | [19] 0.221

CLTA (UniProt P09496)
inactive: [1] -0.047 | [2] -0.008 | [3] -0.054 | [4] -0.025 | [5] -0.014 | [6] -0.007 | [7] 0.025 | [8] 0.025 | [9] -0.047 | [10] -0.017 | [11] -0.015 | [12] 0.008 | [13] 0.007 | [14] -0.04 | [15] -0.053 | [16] 0.022 | [17] -0.011 | [18] -0.037 | [19] 0.011

CLUH (UniProt O75153)
inactive: [1] -0.011 | [2] 0.018 | [3] -0.006 | [4] 0.051 | [5] 0.21 | [6] -0.013 | [7] -0.014 | [8] -0.009 | [9] -0.005 | [10] -0.007 | [11] 0.093 | [12] 0.008 | [13] -0.004 | [14] -0.044 | [15] -0.01 | [16] 0 | [17] -0.001 | [18] 0.006 | [19] 0.008

CLGN (UniProt O14967)
inactive: [1] 0.026 | [2] -0.058 | [3] 0.018 | [4] -0.003 | [5] 0.026 | [6] 0 | [7] -0.083 | [8] 0.024 | [9] 0.052 | [10] 0.005 | [11] -0.021 | [12] 0.027 | [13] -0.025 | [14] -0.051 | [15] -0.004 | [16] -0.002 | [17] 0 | [18] -0.002 | [19] -0.062

CKAP5 (UniProt Q14008)
inactive: [1] 0.018 | [2] 0.003 | [3] 0.005 | [4] -0.01 | [5] -0.009 | [6] 0.002 | [7] -0.055 | [8] -0.015 | [9] 0.004 | [10] 0.001 | [20] -0.024 | [11] -0.008 | [12] 0.015 | [13] -0.012 | [14] -0.007 | [15] 0.007 | [16] 0.005 | [17] -0.013 | [18] 0.023 | [19] 0.006

CLTC (UniProt Q00610)
inactive: [1] 0.007 | [2] 0.069 | [3] -0.042 | [4] 0.024 | [5] 0.029 | [6] -0.008 | [7] -0.028 | [8] -0.019 | [9] 0.008 | [10] -0.01 | [11] -0.008 | [12] 0.013 | [13] -0.013 | [14] -0.008 | [15] -0.008 | [16] 0.015 | [17] 0.043 | [18] 0.015 | [19] 0.026

2 entries picked at random from the list so far, as already listed:
CKAP5 (UniProt Q14008)
inactive: [1] 0.018 | [2] 0.003 | [3] 0.005 | [4] -0.01 | [5] -0.009 | [6] 0.002 | [7] -0.055 | [8] -0.015 | [9] 0.004 | [10] 0.001 | [20] -0.024 | [11] -0.008 | [12] 0.015 | [13] -0.012 | [14] -0.007 | [15] 0.007 | [16] 0.005 | [17] -0.013 | [18] 0.023 | [19] 0.006

CLGN (UniProt O14967)
inactive: [1] 0.026 | [2] -0.058 | [3] 0.018 | [4] -0.003 | [5] 0.026 | [6] 0 | [7] -0.083 | [8] 0.024 | [9] 0.052 | [10] 0.005 | [11] -0.021 | [12] 0.027 | [13] -0.025 | [14] -0.051 | [15] -0.004 | [16] -0.002 | [17] 0 | [18] -0.002 | [19] -0.062

The results go on.

CLPB isoform 2 (UniProt Q9H078)
inactive: [1] 0.023 | [2] -0.029 | [3] -0.028 | [4] 0.02 | [5] -0.047 | [6] -0.018 | [7] 0.006 | [8] 0.022 | [9] 0.055 | [10] -0.002 | [11] -0.016 | [12] 0.002 | [13] -0.024 | [14] -0.006 | [15] 0.002 | [16] -0.054 | [17] -0.011 | [18] 0.025 | [19] 0.012

CLNS1A (UniProt P54105)
inactive: [1] 0.008 | [2] 0.007 | [3] 0.049 | [4] -0.004 | [5] -0.014 | [6] 0.004 | [7] 0.001 | [8] 0.018 | [9] 0.014 | [10] 0.036 | [11] 0.016 | [12] -0.008 | [13] -0.047 | [14] -0.019 | [15] 0.014 | [16] -0.011 | [17] -0.001 | [18] 0.017 | [19] -0.028

CHTOP isoform 3 (UniProt Q9Y3Y2)
inactive: [1] 0.051 | [2] -0.337 | [3] 0.036 | [4] 0.016 | [5] -0.04 | [6] -0.005 | [7] -0.001 | [8] 0.117 | [9] -0.007 | [10] -0.059 | [20] 0.075 | [11] -0.099 | [12] 0.016 | [13] -0.075 | [14] 0.157 | [16] 0.03 | [17] 0.015 | [18] 0.099 | [19] -0.028

CLPP (UniProt Q16740)
inactive: [1] -0.045 | [2] 0.026 | [3] -0.015 | [4] 0.043 | [5] -0.008 | [6] -0.031 | [7] 0.013 | [8] 0.007 | [9] 0.033 | [10] -0.007 | [11] 0.017 | [12] -0.006 | [13] 0.005 | [14] 0.044 | [15] 0.011 | [16] -0.037 | [17] 0.013 | [18] -0.04 | [19] 0.038

CLASP2 isoform 3 (UniProt O75122)
inactive: [1] 0.032 | [2] -0.014 | [3] -0.022 | [4] -0.032 | [5] -0.018 | [6] 0 | [7] -0.024 | [8] -0.024 | [9] 0.057 | [10] -0.012 | [11] 0.004 | [12] 0.019 | [13] -0.014 | [14] 0.025 | [15] 0.019 | [16] -0.008 | [17] 0.023 | [18] 0.042 | [19] 0.004
